Experimental data published in publication PMC5777986.

Molecular target: TatB (E. coli) (UniProt P69425)
Assay: cross-linking; inverted inner membrane vesicles (TatABC, TatEBC, TatEABC) diluted in INV-buffer, DCCD (1 µl of 50 mM in 100 µl) added, 20 min on ice, TCA precipitation, 9% Tricine SDS-PAGE, Western blot with antibodies against TatA, TatB, TatC, TatE

binding: binds
B1: TatE (protein, UniProt P0A843 1-67)
chain: MGEISITKLLVVAALVVLLFGTKKLRTLGGDLGAAIKGFKKAMNDDDAAAKKGADVDLQAEKLSHKE

These are yes or no findings as the source states them, for the method shown. In cells and extracts the contact can be indirect. Binding calls can cover weak binding; strength is not graded here.
